Test results taken from the supplement of paper PMC3682954.
Where “and” joins values, the source holds several entries; their conditions need not be identical. Identical values can stand only once. Counter-ions that a name gives are not always drawn. ± gives the standard deviation of the averaged measurements. The list shows a part of the results. Repeats are few or missing, and single values can be far off.

System: RAW 264.7
Experiment: cell viability (MTT) relative to vehicle control; higher = more viable cells
Conditions: stimulus: HMGB1 5 ug/ml, 18 h
[1] = compound concentration: 1 ug/ml

Structure (SMILES) | cell viability (compound concentration: 3 uM) | cell viability [1] [%]
C=C[C@H]1CN2CC[C@H]1C[C@H]2[C@H](O)c1ccnc2ccccc12 | 99.8% | 
O=C1C=CC(=O)c2c(O)cccc21 | 121% | 
COC[C@H]1OC(=O)c2coc3c2[C@@]1(C)C1=C(C3=O)[C@@H]2CCC(=O)[C@@]2(C)C[C@H]1OC(C)=O [Wortmannin from Penicillium funiculosum] | 93.5% | 
Clc1cnc(Oc2ccc(Oc3ncc(Cl)cc3Cl)cc2)c(Cl)c1 | 109% | 
Oc1cc2c(cc1O)[C@H]1c3ccccc3CN[C@@H]1CC2 | 86.6% | 
CNCCc1ccc(O)c(O)c1 [N-Methyldopamine hydrochloride] | 103% | 
Oc1ccc(CC2NCCc3cc(O)c(O)cc32)cc1O (stereo not given) [Tetrahydropapaveroline hydrobromide] |  | 92
OC[C@@H]1CCCN2CCCC[C@H]12 [Lupinine] |  | 97.6
COC1=CC2C3Cc4ccc(OC)c(O)c4C2(CCN3C)CC1=O (stereo not given) |  | 83.2
C=CC[C@]1(O)CC[C@H]2[C@@H]3CCC4=CC(=O)CCC4=C3C=C[C@@]21C | 113% | 
CC(Cc1ccc(O)cc1)NCC(O)c1cc(O)cc(O)c1 (stereo not given) [Fenoterol hydrobromide] | 101 ± 2% | 
CC(Cc1ccc(O)cc1)NCC(O)c1cc(O)cc(O)c1 (stereo not given) | 105% | 
C=C1[C@@H]2CC[C@H]3[C@]4(C)C[C@H](O[C@@H]5O[C@H](CO)[C@@H](OS(=O)(=O)O)[C@H](OS(=O)(=O)O)[C@H]5OC(=O)CC(C)C)C[C@@H](C(=O)O)[C@H]4CC[C@]3(C2)[C@@H]1O [Atractyloside potassium salt] | 120% | 
C=C[C@H]1CN2CC[C@H]1C[C@@H]2[C@@H](O)c1ccnc2ccccc12 | 106% | 
C=C[C@H]1CN2CC[C@H]1C[C@@H]2[C@@H](O)c1ccnc2ccccc12 [(+)-Cinchonine] |  | 79.4
Cn1cnc(CCN)c1 [1-Methylhistamine dihydrochloride] | 103% | 98.1
C1CCc2nnnn2CC1 [Pentylenetetrazole] | 102 ± 4.2% | 
C1CCc2nnnn2CC1 | 102% | 
CNCC(O)c1ccc(O)cc1 (racemic) [(+,-)-Synephrine] | 95% | 
CNCC(O)c1ccc(O)cc1 (racemic) [(±)-Synephrine] | 119% | 
CN(N=O)c1ccc(O)c(O)c1 [Me-3,4-dephostatin] | 121% | 
CCCN1CCC[C@@H]2Cc3nc(N)ncc3C[C@H]21 [Quinelorane dihydrochloride] | 103% | 
C[C@]12CC[C@@H](O)C[C@@H]1CC[C@@H]1[C@@H]2CC[C@]2(C)C(=O)CC[C@@H]12 [Androsterone] | 117% | 
CC1=CC(=O)C2=C(C)C[C@H](O)[C@@H]3[C@H](OC(=O)[C@H]3C)[C@H]12 [Austricine] |  | 96
COP(=S)(OC)Oc1ccc(SC)c(C)c1 | 111% | 
O=c1[nH]c2ccccc2n1CCCN1CCC(n2c(=O)[nH]c3cc(Cl)ccc32)CC1 [Domperidone] | 104 ± 11% | 
O=C([O-])c1ccccc1-c1c2cc(Br)c(=O)cc-2oc2[c]([Hg+])c([O-])c(Br)cc12.[Na+].[Na+].[OH-] [Merbromin] | 115% | 

Structure (SMILES) | cell viability (compound concentration: 3 uM) | cell viability [1] [%]
O=C([O-])c1ccccc1-c1c2cc(Br)c(=O)cc-2oc2[c]([Hg+])c([O-])c(Br)cc12.[Na+].[Na+].[OH-] | 109% | 
CC(C)[N+](C)(CCC(C(N)=O)(c1ccccc1)c1ccccc1)C(C)C | 104% | 
CC(C)[N+](C)(CCC(C(N)=O)(c1ccccc1)c1ccccc1)C(C)C [Isopropamide iodide] | 120% | 
C#C[C@]1(O)CC[C@H]2[C@@H]3CCC4=CC(=O)CC[C@]4(C)[C@H]3CC[C@@]21C | 110% | 
C#C[C@]1(O)CC[C@H]2[C@@H]3CCC4=CC(=O)CC[C@]4(C)[C@H]3CC[C@@]21C [Ethisterone] | 100.5 ± 0.44% | 
C=CCN1CC[C@]23c4c5ccc(O)c4O[C@H]2/C(=N/NC(=O)c2ccccc2)CC[C@@]3(O)[C@H]1C5 [Naloxone benzoylhydrazone] | 109% | 
CC(C)CC(N(C)C)C1(c2ccc(Cl)cc2)CCC1 (stereo not given) [Sibutramine HCl] | 89.2% | 
CC(C)CC(N(C)C)C1(c2ccc(Cl)cc2)CCC1 (stereo not given) | 104% and 100% | 
CC(C)CC(N(C)C)C1(c2ccc(Cl)cc2)CCC1 (stereo not given) [Sibutramine] | 93.7 ± 9.4% | 
CNC1(c2ccccc2Cl)CCCCC1=O (stereo not given) | 115% | 
COc1ccc(CC2c3cc(OC)c(OC)cc3CCN2C)cc1OC (stereo not given) [Laudanosine] |  | 95.2
NC(N)=NOCC[C@H](N)C(=O)O | 98% | 
NC(N)=NOCC[C@H](N)C(=O)O [L-Canavanine sulfate] | 108% | 
NC(N)=NOCC[C@H](N)C(=O)O [L-Canavanine] | 104% | 
N[C@@H](Cn1oc(=O)[nH]c1=O)C(=O)O [(+)-Quisqualic acid] | 93.9% | 
C#CCN(C)C(C)Cc1ccccc1 (stereo not given) [Deprenyl HCl] | 105 ± 4.9% | 
C[N+]1(CCC(C(N)=O)(c2ccccc2)c2ccccc2)CCCCC1 | 98.4% | 
S=C(NC1CCCCC1)N1CCC(c2cnc[nH]2)CC1 [Thioperamide maleate] | 112 ± 10% | 
O=C([O-])Cc1ccccc1.[Na+] [Sodium Phenylacetate] | 101% | 
C[C@]12CC[C@H]3[C@@H](CC[C@]4(O)C[C@@H](O)CC[C@]34C=O)[C@@]1(O)CC[C@@H]2C1=CC(=O)OC1 [Strophanthidin] |  | 105
NC(=O)CN1CCCC1=O | 113% | 
NC(=O)CN1CCCC1=O [Piracetam] | 92.3 ± 16% | 
COc1cc2c(cc1OC)C(C)NCC2 (stereo not given) | 79% | 
NCc1cc(O)no1 [Muscimol hydrobromide] | 103% | 
C=CCN1C[C@H](C(=O)N(CCCN(C)C)C(=O)NCC)C[C@@H]2c3cccc4[nH]cc(c34)C[C@H]21 [Cabergoline] | 96.2% | 
Oc1ccc2c3c1O[C@H]1c4oc5ccccc5c4C[C@@]4(O)[C@@H](C2)N(CC2CC2)CC[C@]314 [Naltriben methanesulfonate hydrate] | 112% | 
Oc1ccc2c3c1O[C@H]1c4oc5ccccc5c4C[C@@]4(O)[C@@H](C2)N(CC2CC2)CC[C@]314 [Naltriben methanesulfonate] | 105% | 
